Each structure is given as a SMILES string. Where a name gives a salt, the structure may show the parent alone. ± gives the standard deviation of the averaged measurements. This is one part of the list. Values are raw readings; no control value is given beside them.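 One yeast strain harboring four plasmids, each bearing a fluorescent protein plus an amino-acid or uracil synthesis gene, founds the community. Random loss of plasmids produces mixed prototroph and auxotroph subpopulations. Cells were fixed, then counted with automated confocal fluorescence imaging, with DMSO-treated wells as vehicle reference.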

The experiment deals with Saccharomyces cerevisiae BY4741 SeMeCo community. The experiment can be described thus: imaged cell count per well (cells); higher = more cells. As to conditions: 10 µM; 24 h; SM minimal medium. Here is the method:
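Same SeMeCo high-content imaging drug screen: Selleck FDA-approved drugs at 10 µM, 24 h in SM medium, 384-well plates, 3 replicates.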
On to `O=C(C1CCCCC1)N1CC(=O)N2CCc3ccccc3C2C1` (stereo not given) [Praziquantel], for which the “imaged cell count per well” value came to 23600 ± 2000.

With `Nc1nc(N)nc(-c2cc(Cl)ccc2Cl)n1` [Irsogladine], the “imaged cell count per well” value amounted to 27400 ± 3700.

In the case of `O=c1c(-c2ccc(O)cc2)coc2c([C@@H]3O[C@H](CO)[C@@H](O)[C@H](O)[C@H]3O)c(O)ccc12` [Puerarin], the “imaged cell count per well” value came to 19900 ± 7900.

Turning to `CCCCC(F)(F)[C@@]1(O)CC[C@H]2[C@@H](CC(=O)[C@@H]2CCCCCCC(=O)O)O1` [Lubiprostone], the “imaged cell count per well” value was found to be 25700 ± 3200.

Regarding `CC(C)(C)CC(C)(C)c1ccc(OCCOCC[N+](C)(C)Cc2ccccc2)cc1` [Benzethonium Chloride], the “imaged cell count per well” value amounted to 29600 ± 11000.

For the compound `COc1cccc(CCc2ccccc2OCC(CN(C)C)OC(=O)CCC(=O)O)c1` (stereo not given) [Sarpogrelate hydrochloride], the “imaged cell count per well” value was found to be 29400 ± 5300.

For `CCN(CC)C(=O)[C@@]1(c2ccccc2)C[C@H]1CN` [Levomilnacipran Hydrochloride], the “imaged cell count per well” value was determined as 26400 ± 5800.

For `COc1ccc2c(c1)c(CC(=O)OCC(=O)O)c(C)n2C(=O)c1ccc(Cl)cc1` [Acemetacin], the “imaged cell count per well” value came to 22500 ± 8600.

`O=S1(=O)CCN(CN2CCS(=O)(=O)NC2)CN1` [Taurolidine]: the “imaged cell count per well” value was determined as 25900 ± 7500.

With `CCCCc1oc2ccccc2c1C(=O)c1cc(I)c(OCCN(CC)CC)c(I)c1` [Amiodarone HCl], the “imaged cell count per well” value amounted to 9890 ± 2700.

Take `CO/N=C(\C(=O)N[C@@H]1C(=O)N2C(C(=O)O)=CCS[C@H]12)c1csc(N)n1` [Ceftizoxime]: the “imaged cell count per well” value was determined as 23400 ± 4300.

`O=C(NCCN1CCOCC1)c1ccc(Cl)cc1`: the “imaged cell count per well” value came to 24900 ± 6200.

Regarding `CCCCN1CCCC[C@H]1C(=O)Nc1c(C)cccc1C` [Levobupivacaine HCl], the “imaged cell count per well” value worked out at 28200 ± 3300.

In the case of `CC(C)[N+]1(C)[C@@H]2CC[C@H]1C[C@@H](OC(=O)C(CO)c1ccccc1)C2` (stereo not given in full) [Ipratropium Bromide], the “imaged cell count per well” value is 25000 ± 6300.

With `Cn1c(=O)c2c(ncn2CC2OCCO2)n(C)c1=O` [Doxofylline], the “imaged cell count per well” value was found to be 26400 ± 17000.

As for `COC(=O)C1=C(C)NC(C)=C(C(=O)OCCN2CCN(C(c3ccccc3)c3ccccc3)CC2)C1c1cccc([N+](=O)[O-])c1` (stereo not given) [Manidipine 2HCl], the “imaged cell count per well” value was determined as 27300 ± 6300.

As for `CC(C)c1nc(N(C)S(C)(=O)=O)nc(-c2ccc(F)cc2)c1/C=C/[C@@H](O)C[C@@H](O)CC(=O)O` [Rosuvastatin], the “imaged cell count per well” value turned out to be 13000 ± 640.

Take `Nc1ccc2cc3ccc(N)cc3nc2c1` [Proflavine Hemisulfate]: the “imaged cell count per well” value came to 21200 ± 3900.

In the case of `N#CC(c1ccc(Cl)cc1)c1c(Cl)cc(-n2ncc(=O)[nH]c2=O)cc1Cl` (stereo not given) [Diclazuril], the “imaged cell count per well” value came out at 20400 ± 2300.

With `CC1(C)S[C@@H]2[C@H](NC(=O)[C@H](N)c3ccccc3)C(=O)N2[C@H]1C(=O)OCOC(=O)[C@@H]1N2C(=O)C[C@H]2S(=O)(=O)C1(C)C` [Sultamicillin Tosylate], the “imaged cell count per well” value worked out at 25700 ± 4000.

`CCN1CCCC1CNC(=O)c1cc(S(N)(=O)=O)ccc1OC` (stereo not given) [Sulpiride]: the “imaged cell count per well” value is 21600 ± 3100.

`Nc1ccc(S(=O)(=O)c2ccc(N)cc2)cc1` [Dapson]: the “imaged cell count per well” value is 21300 ± 8400.

Take `Oc1c(I)cc(I)c2cccnc12` [Diiodohydroxyquinoline]: the “imaged cell count per well” value came to 12300 ± 9600.

Regarding `Cc1cc(O)cc(C)c1Cl` [Chloroxylenol], the “imaged cell count per well” value came out at 19700 ± 7200.

On to `CN(CCOc1ccc(NS(C)(=O)=O)cc1)CCc1ccc(NS(C)(=O)=O)cc1` [Dofetilide], for which the “imaged cell count per well” value is 26100 ± 5100.

As for `CC(=O)[C@H]1CC[C@H]2[C@@H]3CC=C4C[C@@H](O)CC[C@]4(C)[C@H]3CC[C@]12C` [Pregnenolone], the “imaged cell count per well” value amounted to 20900 ± 730.

`CC[C@@]1(O)C(=O)OCc2c1cc1n(c2=O)Cc2cc3c(CN(C)C)c(O)ccc3nc2-1` [Topotecan HCl]: the “imaged cell count per well” value is 23800 ± 1800.

For the compound `COC(=O)C1=C(C)NC(C)=C(C(=O)OC(C)(C)CN(C)CCC(c2ccccc2)c2ccccc2)C1c1cccc([N+](=O)[O-])c1` (stereo not given) [Lercanidipine], the “imaged cell count per well” value was determined as 23800 ± 4800.

In the case of `O=C1C(CC[S+]([O-])c2ccccc2)C(=O)N(c2ccccc2)N1c1ccccc1` (racemic) [(+/-)-Sulfinpyrazone], the “imaged cell count per well” value turned out to be 20300 ± 6800.

Consider `c1cnc2cc3c(cc2n1)[C@@H]1CNC[C@H]3C1` [Varenicline Tartrate], for which the “imaged cell count per well” value turned out to be 22000 ± 7200.

Turning to `CCCCCNC(=N)N/N=C/c1c[nH]c2ccc(OC)cc12` [Tegaserod Maleate], the “imaged cell count per well” value was 24000 ± 4500.

With `CN(C)CCOc1ccc(/C(=C(/CCCl)c2ccccc2)c2ccccc2)cc1` [Toremifene Citrate], the “imaged cell count per well” value stood at 23300 ± 6600.

Consider `O=C(c1ccccc1)c1ccc2n1CCC2C(=O)O` (stereo not given) [Ketorolac], for which the “imaged cell count per well” value came to 24300 ± 3100.

For `Nc1nc(=O)[nH]cc1F` [Flucytosine], the “imaged cell count per well” value worked out at 965 ± 250.

Turning to `COc1cc(N)c(Cl)cc1C(=O)NC1CCN(CCCOc2ccc(F)cc2)CC1OC` (stereo not given) [Cisapride], the “imaged cell count per well” value came out at 31200 ± 5100.
